Experimental data from US20120035187A1 (priority 2009, published 2012).
For at least one compound, name, drawing or mass did not settle the structure. Some compounds share one range, which may span the group rather than tell each member.

Test system: PC12-HS cells
Test: Evaluation A: neurocyte (cell)-growth-promoting action, ALAMAR BLUE
Format: cell-based, rat
Conditions: 100 μl of 100 ng/ml test sample solution per well, 3 days, relative fluorescent intensity, control = 100%
Procedure: Then, the effects of test samples were judged as follows:
The relative value of 140 to 199: Equivalent effect to that of NK-4, symbol (∘); The relative value of 200 or higher: Stronger effect than that of NK-4, symbol ([…]). • The results are in Table 6.
The relative fluorescent intensity of each well was determined by using the fluorescent intensity of each well with cells, which had been cultured by admixing with D-MEM medium containing 10% by volume of FBS without any of the compounds, and the intensity of the resulting culture was regarded as 100%. The results are expressed as cell survival percentages (%) in Table 9. […]
The test was conducted twice for each test sample in a triplicate manner and the data were averaged.
Seven compounds as in Table 17, NK-234, NK-26, NK-9815, NK-9694, NK-28 and NK-147 as well as NK-4, were each dissolved in DMSO to give a concentration of 5 mg/ml. […] The test was conducted twice for each test sample in a triplicate manner and the data were averaged.

CCN1C=CC(=CC=C(C=Cc2cc[n+](CC)c3ccccc23)c2cc[n+](CC)c3ccccc23)c2ccccc21.[I-].[I-] [NK-4]
Evaluation A: Cell-growth-promoting action: ∘ (The relative value of 140 to 199: Equivalent effect to that of NK-4, symbol (∘))

CC[n+]1c(C)cccc1/C=C/Nc1ccc(Br)cn1.[I-] [NK-343]
Evaluation A: Cell-growth-promoting action: ∘ (The relative value of 140 to 199: Equivalent effect to that of NK-4, symbol (∘))

Cc1coc(/C=C/Nc2ccccc2)[n+]1C.[I-] [NK-355]
Evaluation A: Cell-growth-promoting action: ∘ (The relative value of 140 to 199: Equivalent effect to that of NK-4, symbol (∘))

O=C1C(=Cc2ccc(O)cc2)SC(=S)N1c1ccccc1 [NK-660]
Evaluation A: Cell-growth-promoting action: ∘ (The relative value of 140 to 199: Equivalent effect to that of NK-4, symbol (∘))

CC1=NN(c2ccccc2)C(=O)C1=Cc1ccccc1 [NK-1076]
Evaluation A: Cell-growth-promoting action: ∘ (The relative value of 140 to 199: Equivalent effect to that of NK-4, symbol (∘))

CCN1C(=O)C(=Cc2ccccc2)SC1=S [NK-1077]
Evaluation A: Cell-growth-promoting action: ∘ (The relative value of 140 to 199: Equivalent effect to that of NK-4, symbol (∘))

CC1=NN(c2ccccc2)C(=O)C1=Cc1ccc(N(C)C)cc1 [NK-1107]
Evaluation A: Cell-growth-promoting action: ∘ (The relative value of 140 to 199: Equivalent effect to that of NK-4, symbol (∘))

CCN1C(=CC=C2C(=O)N(c3ccccc3)C(=S)N2c2ccccc2)Oc2cc(C)c(C)cc21 [NK-1113]
Evaluation A: Cell-growth-promoting action: ∘ (The relative value of 140 to 199: Equivalent effect to that of NK-4, symbol (∘))

C=CCN1C(=O)C(=CC=C2Oc3ccccc3N2CC)SC1=S [NK-1141]
Evaluation A: Cell-growth-promoting action: ∘ (The relative value of 140 to 199: Equivalent effect to that of NK-4, symbol (∘))

CCN1C(=O)C(=CC=C2C=Cc3ccccc3N2CC)SC1=S [NK-1218]
Evaluation A: Cell-growth-promoting action: ∘ (The relative value of 140 to 199: Equivalent effect to that of NK-4, symbol (∘))

CCN1C(=O)C(=CC=C2N(C)c3ccccc3N2C)SC1=S [NK-1221]
Evaluation A: Cell-growth-promoting action: ∘ (The relative value of 140 to 199: Equivalent effect to that of NK-4, symbol (∘))

CCN1C(=O)C(=CNc2ccccc2)SC1=S [NK-1229]
Evaluation A: Cell-growth-promoting action: ∘ (The relative value of 140 to 199: Equivalent effect to that of NK-4, symbol (∘))

CCN1C(=O)C(=CC=C2Sc3ccccc3N2CC)N(CC)C1=S [NK-1237]
Evaluation A: Cell-growth-promoting action: ∘ (The relative value of 140 to 199: Equivalent effect to that of NK-4, symbol (∘))

CCN1C(=O)C(=CC=C2Oc3ccccc3N2CC)SC1=S [NK-1249]
Evaluation A: Cell-growth-promoting action: ∘ (The relative value of 140 to 199: Equivalent effect to that of NK-4, symbol (∘))

CCN1CCSC1=CC=C1SC(=S)N(CC)C1=O [NK-1268]
Evaluation A: Cell-growth-promoting action: ∘ (The relative value of 140 to 199: Equivalent effect to that of NK-4, symbol (∘))

CCN1C(=CC=C2C(=O)ON=C2c2ccccc2)SC(c2ccccc2)=C1c1ccccc1 [NK-1326]
Evaluation A: Cell-growth-promoting action: ∘ (The relative value of 140 to 199: Equivalent effect to that of NK-4, symbol (∘))

CCN1/C(=C/C=C2\C(=O)ON=C2c2ccccc2)[Se]c2ccccc21 [NK-1439]
Evaluation A: Cell-growth-promoting action: ∘ (The relative value of 140 to 199: Equivalent effect to that of NK-4, symbol (∘))

CCN1/C(=C/C=C2\C(=O)ON=C2c2ccccc2)Sc2ccccc21 [NK-1440]
Evaluation A: Cell-growth-promoting action: ∘ (The relative value of 140 to 199: Equivalent effect to that of NK-4, symbol (∘))

CCN1CCSC1=CC=C1C(=O)ON=C1c1ccccc1 [NK-1442]
Evaluation A: Cell-growth-promoting action: ∘ (The relative value of 140 to 199: Equivalent effect to that of NK-4, symbol (∘))

CC1=NN(c2ccc(S(=O)(=O)O)cc2)C(=O)C1=CC=Cc1c(C)nn(-c2ccc(S(=O)(=O)O)cc2)c1O [NK-1447]
Evaluation A: Cell-growth-promoting action: ∘ (The relative value of 140 to 199: Equivalent effect to that of NK-4, symbol (∘))

CCN1C(=O)C(=CC=Cc2sc(=S)n(CC)c2O)SC1=S [NK-1451]
Evaluation A: Cell-growth-promoting action: ∘ (The relative value of 140 to 199: Equivalent effect to that of NK-4, symbol (∘))

CCOC(=O)C1=C(C)N(CC)C(=CC=C2SC(=S)N(CC)C2=O)S1 [NK-1461]
Evaluation A: Cell-growth-promoting action: ∘ (The relative value of 140 to 199: Equivalent effect to that of NK-4, symbol (∘))

CCN1C(=O)C(=CC=C2N(C)c3ccccc3C2(C)C)OC1=S [NK-1474]
Evaluation A: Cell-growth-promoting action: ∘ (The relative value of 140 to 199: Equivalent effect to that of NK-4, symbol (∘))

CCN1C(=CC=c2sc(=Cc3sc4ccccc4[n+]3CC)n(CC)c2=O)Sc2ccccc21.[I-] [NK-1531]
Evaluation A: Cell-growth-promoting action: ∘ (The relative value of 140 to 199: Equivalent effect to that of NK-4, symbol (∘))

CCN1C(C)=CSC1=C1SC(=S)NC1=O [NK-1553]
Evaluation A: Cell-growth-promoting action: ∘ (The relative value of 140 to 199: Equivalent effect to that of NK-4, symbol (∘))

CCN1C(=CC=C2Sc3ccccc3C2=O)Sc2ccccc21 [NK-1584]
Evaluation A: Cell-growth-promoting action: ∘ (The relative value of 140 to 199: Equivalent effect to that of NK-4, symbol (∘))

CCN1C(=CC=CC=C2Sc3ccccc3C2=O)Sc2ccccc21 [NK-1585]
Evaluation A: Cell-growth-promoting action: ∘ (The relative value of 140 to 199: Equivalent effect to that of NK-4, symbol (∘))

CC1=NN(c2ccccc2)C(=O)C1=Cc1c(C)nn(-c2ccccc2)c1O [NK-1743]
Evaluation A: Cell-growth-promoting action: ∘ (The relative value of 140 to 199: Equivalent effect to that of NK-4, symbol (∘))

CC1=NN(c2ccccc2)C(=O)C1=CC=CC=Cc1c(C)nn(-c2ccccc2)c1O [NK-1744]
Evaluation A: Cell-growth-promoting action: ∘ (The relative value of 140 to 199: Equivalent effect to that of NK-4, symbol (∘))

C=CCN1C(=O)/C(=C\C=C2/Oc3ccccc3N2CC)N(CC(=O)O)C1=S [NK-3986]
Evaluation A: Cell-growth-promoting action: ∘ (The relative value of 140 to 199: Equivalent effect to that of NK-4, symbol (∘))
